Experimental data reported in article doi:10.1101/2021.01.06.425657.
Results are given in words; binding and its absence hold for the method and conditions named. Binding seen in cells or lysates may run through a third protein. Some entries that bind do so weakly or less than the wild type. Sequences can lack the tags named with a protein.

Target: T1, Met30-Flag (S. cerevisiae) (UniProt P39014)
T1 sequence: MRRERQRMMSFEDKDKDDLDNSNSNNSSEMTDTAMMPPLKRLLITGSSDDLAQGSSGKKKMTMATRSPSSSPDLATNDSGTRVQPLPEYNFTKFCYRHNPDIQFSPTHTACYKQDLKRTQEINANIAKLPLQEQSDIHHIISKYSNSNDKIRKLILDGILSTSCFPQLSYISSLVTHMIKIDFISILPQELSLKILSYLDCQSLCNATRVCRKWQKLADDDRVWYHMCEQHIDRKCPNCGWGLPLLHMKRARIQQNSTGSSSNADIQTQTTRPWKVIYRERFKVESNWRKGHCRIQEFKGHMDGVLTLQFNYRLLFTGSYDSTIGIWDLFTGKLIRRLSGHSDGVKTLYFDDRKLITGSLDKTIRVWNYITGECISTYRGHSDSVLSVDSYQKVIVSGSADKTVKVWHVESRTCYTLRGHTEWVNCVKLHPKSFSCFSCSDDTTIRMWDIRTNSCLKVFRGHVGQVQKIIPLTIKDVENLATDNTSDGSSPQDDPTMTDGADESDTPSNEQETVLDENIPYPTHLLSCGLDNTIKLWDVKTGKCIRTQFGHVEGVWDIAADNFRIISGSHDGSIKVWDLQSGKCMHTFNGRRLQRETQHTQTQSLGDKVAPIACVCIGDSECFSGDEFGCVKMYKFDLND
Assay: co-IP

B1: Cdc53 (protein, UniProt Q12018 1-815)
chain: MSETLPRSDDLEATWNFIEPGINQILGNEKNQASTSKRVYKILSPTMYMEVYTAIYNYCVNKSRSSGHFSTDSRTGQSTILVGSEIYEKLKNYLKNYILNFKQSNSETFLQFYVKRWKRFTIGAIFLNHAFDYMNRYWVQKERSDGKRHIFDVNTLCLMTWKEVMFDPSKDVLINELLDQVTLGREGQIIQRSNISTAIKSLVALGIDPQDLKKLNLNVYIQVFEKPFLKKTQEYYTQYTNDYLEKHSVTEYIFEAHEIIKREEKAMTIYWDDHTKKPLSMALNKVLITDHIEKLENEFVVLLDARDIEKITSLYALIRRDFTLIPRMASVFENYVKKTGENEISSLLAMHKHNIMKNENANPKKLALMTAHSLSPKDYIKKLLEVHDIFSKIFNESFPDDIPLAKALDNACGAFININEFALPAGSPKSATSKTSEMLAKYSDILLKKATKPEVASDMSDEDIITIFKYLTDKDAFETHYRRLFAKRLIHGTSTSAEDEENIIQRLQAANSMEYTGKITKMFQDIRLSKILEDDFAVALKNEPDYSKAKYPDLQPFVLAENMWPFSYQEVEFKLPKELVPSHEKLKESYSQKHNGRILKWLWPLCRGELKADIGKPGRMPFNFTVTLFQMAILLLYNDADVLTLENIQEGTSLTIQHIAAAMVPFIKFKLIQQVPPGLDALVKPETQFKLSRPYKALKTNINFASGVKNDILQSLSGGGHDNHGNKLGNKRLTEDERIEKELNTERQIFLEACIVRIMKAKRNLPHTTLVNECIAQSHQRFNAKVSMVKRAIDSLIQKGYLQRGDDGESYAYLA
- binding: binds
